Several values for one entry are separate records, joined by “and”; a condition that tells them apart may be missing. Equal entries are not always repeated. The list shows a part of the results. Shown are side measurements of this screen, not its main read-out; they come without a call. Most of these compounds were active or inconclusive in the main read-out, so they are no random draw. Potencies come from curve fits of mixed quality, noted in brackets.
Assay: qHTS Assay to Find Inhibitors of Chronic Active B-Cell Receptor Signaling
Conditions: ABC-DLBCL IkBa-CBG/CBR reporter, luminescence ratio (green luciferase fused to IkBa over red control in TMD8 lymphoma cells), 4 h
Method in brief: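 TMD8 ABC-DLBCL cells carrying doxycycline-inducible green luciferase fused to IkappaBalpha plus unfused red luciferase were exposed to compounds (up to 46 uM) for 4 hrs at 37C. Activity came from the overlap-corrected green/red luminescence ratio.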

[1] = measured here: CBR red luminescence, cell number
[2] = measured here: IkBa-CBG green luminescence

Row | SMILES | AC50 [1] | AC50 [2]
1 | CNC(=O)c1ccc(Nc2nc(-c3ccccc3)nc3ccccc23)cc1 | 8.91 µM [falling, partial curve] | –
2 | Cc1nnc(SC(C)C(=O)N2CCc3ccccc32)s1 (configuration not stated) | 6.51 µM [rising, single point] | 5.8 µM [falling, partial curve, poor fit]
3 | COc1ccc(S(=O)(=O)N2CCN(C(=O)c3cc(C)oc3C)CC2)cc1OC | 2.59 µM [rising, partial curve, poor fit] | –
4 | O=C(c1ccc2ccccc2c1)N1CCN(Cc2ccccc2)CC1 | 35.5 µM [falling, single point] | –
5 | CCCCCCCNC(=O)C1(CC2CC(c3ccccc3)=NO2)CCN(C(=O)c2ccccc2)CC1 (configuration not stated) | 0.82 µM [rising, full curve, poor fit] | –
6 | Cc1ccc(/C(N)=N/OC(=O)c2ccc(C)cc2Cl)cc1 | 0.517 µM [rising, full curve, poor fit] | –
7 | Fc1ccc(-c2nc(-c3cccs3)[nH]c2-c2ccc(F)cc2)cc1 | 18.4 µM [falling, partial curve] | –
8 | O=C(NC1CCCCC1)c1noc2c1CCCCC2 | 10.3 µM [falling, partial curve] | –
9 | O=C(Nc1ncc(S(=O)(=O)c2ccc([N+](=O)[O-])cc2)s1)c1cccnc1 | 35.5 µM [rising, single point] | –
10 | O=C(CSc1ncnc2c1cnn2-c1ccccc1)Nc1ccc2c(c1)OCO2 | 11.2 µM [falling, partial curve, poor fit] | –
11 | Cn1nc(C(=O)NNC(=O)c2ccccc2Br)c2ccccc2c1=O | 11.6 µM [falling, partial curve] | –
12 | Cc1cc(=O)c(C(=O)O)cn1-c1ccc(C(C)C)cc1 | 7.08 µM [rising, partial curve, poor fit] | –
13 | Cc1ccc(OCc2cc(C(=O)N3CCN(CC(=O)NC(C)C)CC3)no2)cn1 | 3.16 µM [falling, single point] | –
14 | O=C(Nc1ccc(OC(F)(F)F)cc1)N1CCN(c2ccnc3cc(Cl)ccc23)CC1 | 0.891 µM [falling, full curve, poor fit] | –
15 | CCCCN(CCCC)C(=O)c1c[nH]c2ccc(S(=O)(=O)Nc3cccc(Cl)c3C)cc2c1=O | 20.6 µM [falling, single point] | 18.4 µM [rising, partial curve, poor fit]
16 | Cc1ccc(C(=O)Nc2cnc3ccccn3c2=O)cc1 | 9.2 µM [falling, partial curve] and 15.8 µM [falling, single point] | –
17 | CCOC(=O)C1=C(N)Oc2cc(O)ccc2C1c1cccc([N+](=O)[O-])c1 (configuration not stated) | 25.1 µM [falling, single point] | –
18 | Cc1cc(OCCCCN2C(=O)NC(C)(C)C2=O)ccc1[N+](=O)[O-] | 1.12 µM [falling, full curve, poor fit] | –
19 | Cn1cc(SCC(N)=O)c2ccccc21 | 25.9 µM [rising, single point] | –
20 | Cn1c(C(=O)N2CCN(c3ncccn3)CC2)cc2c(=O)n(C)c3ccccc3c21 | 32.6 µM [falling, partial curve, poor fit] | –

Row | SMILES | AC50 [1] | AC50 [2]
21 | CN(CC(=O)Nc1ccc(Cl)cc1)CC(=O)Nc1cccc(Br)c1 | 17.8 µM [falling, single point] | –
22 | CC(=O)N1CCN(CC(=O)Nc2ccc([N+](=O)[O-])cc2Br)CC1 | 35.5 µM [rising, single point] | –
23 | Cc1ccc(-c2cc(C(=O)OCn3nnc4ccccc4c3=O)c3ccccc3n2)cc1 | 2.31 µM [rising, partial curve, poor fit] | –
24 | N#Cc1cc(C(=O)c2cc(Cl)ccc2O)cn(CC2CCCO2)c1=O (configuration not stated) | 6.31 µM [rising, single point] | –
25 | CCc1nnc2sc(-c3cc(-c4ccccc4)nc4ccccc34)nn12 | 16.4 µM [falling, single point] | –
26 | O=C(c1ccc(S(=O)(=O)c2ccc(F)cc2)c([N+](=O)[O-])c1)N1CCCCCC1 | 32.6 µM [falling, partial curve, poor fit] | –
27 | O=c1c2ccccc2cnn1-c1nc2ccccc2[nH]1 | 0.708 µM [falling, full curve] | –
28 | COCCn1c(SCC(=O)Nc2ccccc2F)nc2c(c1=O)SCC2 | 35.5 µM [falling, single point] | –
29 | COC(=O)c1cc(C(=O)OC)[nH]n1 | 3.55 µM [falling, single point] | –
30 | CCOc1ccc(CO[C@@H]2O[C@H](CO)[C@@H](O)[C@H](O)[C@H]2NC(C)=O)cc1OC | 20 µM [rising, single point] | –
31 | CN1CCS/C1=C/C=C1/SC(=S)N(Cc2ccccc2)C1=O | 23.1 µM [rising, single point] | –
32 | CC(C)Cn1cnc2sc3c(c2c1=N)CCCC3 | 1.84 µM [falling, partial curve, poor fit] | –
33 | Cc1nc2ccc(NC(=O)COc3ccccc3F)cc2s1 | 35.5 µM [falling, single point] | –
34 | COc1ccc(S(=O)(=O)N(CC(=O)Nc2ccc(Br)cc2)Cc2ccccc2)cc1 | 2.51 µM [rising, partial curve] | –
35 | CCOC(=O)c1c(C)[nH]c(-c2csc(C)n2)c1C | 7.08 µM [rising, partial curve, poor fit] | –
36 | CNC(C)C(=O)NC(C(=O)N1CCCC1C(=O)NC1CCCc2ccccc21)C(C)C (configuration not stated) | 6.51 µM [rising, partial curve] | –
37 | CN(C)c1ccc(CNCCC(Cc2ccccc2)c2ccco2)cc1 (configuration not stated) | 10 µM [falling, partial curve, poor fit] | –
38 | Cc1ccc2nc(SCC(=O)NCc3ccc(F)cc3)nc(=O)n2c1 | 6.51 µM [rising, single point] | –
39 | N#C/C(N)=C(/C#N)N=Cc1cccc(Cl)c1 | 22.4 µM [falling, single point] | –
40 | COc1ccc(C2c3ccc4ccccc4c3Oc3ncn(CCO)c(=N)c32)cc1OC (configuration not stated) | 35.5 µM [falling, single point] | –

Some of the entries so far, as tab-separated lines.
Row	SMILES	AC50 [1]	AC50 [2]
21	CN(CC(=O)Nc1ccc(Cl)cc1)CC(=O)Nc1cccc(Br)c1	17.8 µM [falling, single point]	–
22	CC(=O)N1CCN(CC(=O)Nc2ccc([N+](=O)[O-])cc2Br)CC1	35.5 µM [rising, single point]	–
